{"source": "patent US20070208041A1", "about": "“Compositions for the treatment and prevention of heart disease and methods of using same” (priority 2005, published 2007)", "origin": "cited, not measured here", "tested_on": "phenylephrine-constricted rat aorta", "conditions": "with benomyl", "note": "At least one structure is not confirmed: it was looked up by name or label, or the drawing left a doubt."}
{"smiles": "CC(=O)OCC[N+](C)(C)C", "note": "[acetylcholine]", "values": [{"measurement": "effect of ALDH-2 inhibitor benomyl on vasodilator response", "result": "not affected"}]}
